Paper PMC8843743, “Targeting a proteolytic neoepitope on CUB domain containing protein 1 (CDCP1) for RAS-driven cancers” (The Journal of Clinical Investigation, 2022)
Results are given in words; binding and its absence hold for the method and conditions named. Some results given as binding are weak or reduced against the parent protein; the word gives no strength. Blank lines part the entries; values can stand above or below the binder they belong to.

Assays:
[1] = target: T1, CTF ectodomain of recombinant c-CDCP1 cut 1 (human) (UniProt Q9H5V8); assay: co-purification after co-expression; NTF and CTF ectodomain on separate plasmids cotransfected in BirA-Expi293; protein A or Ni-NTA affinity chromatography; SDS-PAGE
T1 sequence: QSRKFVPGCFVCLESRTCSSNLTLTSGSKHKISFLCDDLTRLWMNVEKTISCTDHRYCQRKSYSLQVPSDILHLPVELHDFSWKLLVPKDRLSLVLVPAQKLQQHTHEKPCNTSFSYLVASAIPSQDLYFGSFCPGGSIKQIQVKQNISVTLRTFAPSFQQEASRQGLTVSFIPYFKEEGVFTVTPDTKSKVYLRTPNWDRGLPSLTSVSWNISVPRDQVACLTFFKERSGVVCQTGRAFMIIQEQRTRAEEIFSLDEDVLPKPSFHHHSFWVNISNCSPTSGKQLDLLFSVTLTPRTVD

[2] = target: T2, CTF (residues 370-836) of c-CDCP1 on HEK293T c-CDCP1 cells (human) (UniProt Q9H5V8); assay: flow cytometry on cells; HEK293T c-CDCP1 cells (CTF and NTF made as 2 polypeptides from one T2A vector); the NTF on the cells detected with IgG 4A06
T2 sequence: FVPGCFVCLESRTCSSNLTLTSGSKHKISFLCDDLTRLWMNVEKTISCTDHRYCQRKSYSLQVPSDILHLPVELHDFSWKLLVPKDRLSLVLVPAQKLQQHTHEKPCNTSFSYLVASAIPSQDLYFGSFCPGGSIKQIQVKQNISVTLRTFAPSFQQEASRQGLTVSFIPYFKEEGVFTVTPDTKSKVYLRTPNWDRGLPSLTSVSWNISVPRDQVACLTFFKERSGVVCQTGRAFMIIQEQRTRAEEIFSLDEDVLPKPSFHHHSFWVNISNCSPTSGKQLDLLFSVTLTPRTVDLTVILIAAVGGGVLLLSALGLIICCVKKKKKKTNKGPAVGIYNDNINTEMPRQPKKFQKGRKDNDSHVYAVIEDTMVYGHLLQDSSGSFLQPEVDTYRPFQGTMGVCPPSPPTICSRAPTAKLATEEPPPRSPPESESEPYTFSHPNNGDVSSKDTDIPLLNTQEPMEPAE

[3] = target: T3, CTF ectodomain of recombinant c-CDCP1 cut 2 (human) (UniProt Q9H5V8); assay: co-purification after co-expression; NTF and CTF ectodomain on separate plasmids cotransfected in BirA-Expi293; protein A or Ni-NTA affinity chromatography; SDS-PAGE
T3 sequence: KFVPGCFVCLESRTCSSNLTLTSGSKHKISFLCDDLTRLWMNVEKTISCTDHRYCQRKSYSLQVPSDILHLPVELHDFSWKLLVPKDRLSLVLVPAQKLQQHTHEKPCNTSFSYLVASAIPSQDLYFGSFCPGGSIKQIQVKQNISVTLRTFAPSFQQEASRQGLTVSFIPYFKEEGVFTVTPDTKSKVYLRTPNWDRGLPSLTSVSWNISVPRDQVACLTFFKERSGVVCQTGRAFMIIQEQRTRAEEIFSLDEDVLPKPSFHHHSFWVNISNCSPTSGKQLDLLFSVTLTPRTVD

- binding [1]: binds
B1: NTF of recombinant c-CDCP1 cut 1 (domain or fragment, UniProt Q9H5V8 30-365)
chain: FEIALPRESNITVLIKLGTPTLLAKPCYIVISKRHITMLSIKSGERIVFTFSCQSPENHFVIEIQKNIDCMSGPCPFGEVQLQPSTSLLPTLNRTFIWDVKAHKSIGLELQFSIPRLRQIGPGESCPDGVTHSISGRIDATVVRIGTFCSNGTVSRIKMQEGVKMALHLPWFHPRNVSGFSIANRSSIKRLCIIESVFEGEGSATLMSANYPEGFPEDELMTWQFVVPAHLRASVSFLNFNLSNCERKEERVEYYIPGSTTNPEVFKLEDKQPGNMAGNFNLSLQGCDQDAQSPGILRLQFQVLVQHPQNESNKIYVVDLSNERAMSLTIEPRPVK

- binding [2]: binds
B2: NTF (residues 30-369) of c-CDCP1 on HEK293T c-CDCP1 cells (domain or fragment, UniProt Q9H5V8 30-369)
chain: FEIALPRESNITVLIKLGTPTLLAKPCYIVISKRHITMLSIKSGERIVFTFSCQSPENHFVIEIQKNIDCMSGPCPFGEVQLQPSTSLLPTLNRTFIWDVKAHKSIGLELQFSIPRLRQIGPGESCPDGVTHSISGRIDATVVRIGTFCSNGTVSRIKMQEGVKMALHLPWFHPRNVSGFSIANRSSIKRLCIIESVFEGEGSATLMSANYPEGFPEDELMTWQFVVPAHLRASVSFLNFNLSNCERKEERVEYYIPGSTTNPEVFKLEDKQPGNMAGNFNLSLQGCDQDAQSPGILRLQFQVLVQHPQNESNKIYVVDLSNERAMSLTIEPRPVKQSRK

- binding [3]: binds
B3: NTF of recombinant c-CDCP1 cut 2 (domain or fragment, UniProt Q9H5V8 30-368)
chain: FEIALPRESNITVLIKLGTPTLLAKPCYIVISKRHITMLSIKSGERIVFTFSCQSPENHFVIEIQKNIDCMSGPCPFGEVQLQPSTSLLPTLNRTFIWDVKAHKSIGLELQFSIPRLRQIGPGESCPDGVTHSISGRIDATVVRIGTFCSNGTVSRIKMQEGVKMALHLPWFHPRNVSGFSIANRSSIKRLCIIESVFEGEGSATLMSANYPEGFPEDELMTWQFVVPAHLRASVSFLNFNLSNCERKEERVEYYIPGSTTNPEVFKLEDKQPGNMAGNFNLSLQGCDQDAQSPGILRLQFQVLVQHPQNESNKIYVVDLSNERAMSLTIEPRPVKQSR
